A short description of data set [1]: Bleed-out properties in polarizer (haze evaluation). The conditions noted are these: haze of polarizing plate; additive in polarizer, added amount 1.0 per 100 parts by mass of polyvinyl alcohol resin.
The nature of data set [2]: Evaluation of durability of polarizing plate, additive in polarizer (Example 2). The conditions noted are these: added amount 1.0 per 100 parts by mass of polyvinyl alcohol resin, 410 nm.
The nature of data set [3]: Evaluation of durability of polarizing plate, additive in adhesive layer (Example 3). The conditions noted are these: added amount 10.0 per 100 parts by mass of the polyvinyl alcohol resin, film thickness 5 μm; for Durability of polarizer: amount of change of orthogonal transmittance (%) 60° C., 95%, 500 hours / Durability of polarizer: amount of change of orthogonal transmittance (%) 60° C., 95%, 1,000 hours / Durability of polarizer: amount of change of orthogonal transmittance (%) 80° C., Dry 500 hours / Durability of polarizer: amount of change of orthogonal transmittance (%) 80° C., Dry, 1,000 hours: 410 nm.

Results on 3 compounds are retold here after patent publication US20160369115A1, “POLARIZING PLATE COMPOSITION, POLARIZING PLATE PROTECTIVE FILM, POLARIZER, POLARIZING PLATE, LIQUID CRYSTAL DISPLAY DEVICE, AND COMPOUND USED IN THE LIQUID CRYSTAL DISPLAY DEVICE” (FUJIFILM Corporation, priority 2014, published 2016).

Turning to `COC(=O)Oc1[nH]c(=O)n(Cc2ccc(B(O)O)cc2)c(=O)c1Cc1ccc(S(=O)(=O)[O-])cc1S(=O)(=O)[O-].[Na+].[Na+]` [Example compound AAL], the Bleed out result in data set [1] is reported as “A (The haze was less than 0.3%.)”. For the same compound, in data set [2], the “Durability of polarizer: amount of change of degree of polarization (%) 60° C., 95%, 500 hours” value is “A+ (The amount of change of the degree of polarization before and after the elapse of time was less than 0.05%.)”; the “Durability of polarizer: amount of change of degree of polarization (%) 60° C., 95%, 1,000 hours” value was “A+ (The amount of change of the degree of polarization before and after the elapse of time was less than 1.0%.)”; the “Durability of polarizer: amount of change of degree of polarization (%) 80° C., Dry, 500 hours” value was “A+ (The amount of change of the degree of polarization before and after the elapse of time was less than 0.05%.)”; the “Durability of polarizer: amount of change of degree of polarization (%) 80° C., Dry, 1,000 hours” value was “A+ (The amount of change of the degree of polarization before and after the elapse of time was less than 0.1%.)”. In addition, in data set [2], the “Durability of polarizer: amount of change of orthogonal transmittance (%) 60° C., 95%, 500 hours” value was “A+ (The amount of change of the orthogonal transmittance before and after the elapse of time was less than 0.1%.)”; the “Durability of polarizer: amount of change of orthogonal transmittance (%) 60° C., 95%, 1,000 hours” value was “A+ (The amount of change of the orthogonal transmittance before and after the elapse of time was less than 0.5%.)”; the “Durability of polarizer: amount of change of orthogonal transmittance (%) 80° C., Dry 500 hours” value was “A+ (The amount of change of the orthogonal transmittance before and after the elapse of time was less than 0.05%.)”; the “Durability of polarizer: amount of change of orthogonal transmittance (%) 80° C., Dry, 1,000 hours” value is “A+ (The amount of change of the orthogonal transmittance before and after the elapse of time was less than 0.1%.)”. In data set [3], the “Durability of polarizer: amount of change of degree of polarization (%) 60° C., 95%, 500 hours” value is “A+ (The amount of change of the degree of polarization before and after the elapse of time was less than 0.05%.)”; the “Durability of polarizer: amount of change of degree of polarization (%) 60° C., 95%, 1,000 hours” value was “A+ (The amount of change of the degree of polarization before and after the elapse of time was less than 1.0%.)”; the “Durability of polarizer: amount of change of degree of polarization (%) 80° C., Dry, 500 hours” value is “A+ (The amount of change of the degree of polarization before and after the elapse of time was less than 0.05%.)”; the “Durability of polarizer: amount of change of degree of polarization (%) 80° C., Dry, 1,000 hours” value is “A+ (The amount of change of the degree of polarization before and after the elapse of time was less than 0.1%.)”. Also, in data set [3], the “Durability of polarizer: amount of change of orthogonal transmittance (%) 60° C., 95%, 500 hours” value was “A+ (The amount of change of the orthogonal transmittance before and after the elapse of time was less than 0.1%.)”; the “Durability of polarizer: amount of change of orthogonal transmittance (%) 60° C., 95%, 1,000 hours” value was “A+ (The amount of change of the orthogonal transmittance before and after the elapse of time was less than 0.5%.)”; the “Durability of polarizer: amount of change of orthogonal transmittance (%) 80° C., Dry 500 hours” value is “A+ (The amount of change of the orthogonal transmittance before and after the elapse of time was less than 0.05%.)”; the “Durability of polarizer: amount of change of orthogonal transmittance (%) 80° C., Dry, 1,000 hours” value was “A+ (The amount of change of the orthogonal transmittance before and after the elapse of time was less than 0.1%.)”.

Regarding `CCO[Si](CCCNC(=O)OCCn1c(=O)[nH]c(OC(=O)OC)c(Cc2ccc(S(=O)(=O)[O-])cc2S(=O)(=O)[O-])c1=O)(OCC)OCC.[Na+].[Na+]` [Example compound AAP], the Bleed out entry in data set [1] is “A (The haze was less than 0.3%.)”. In data set [2], the “Durability of polarizer: amount of change of degree of polarization (%) 60° C., 95%, 500 hours” value was “A+ (The amount of change of the degree of polarization before and after the elapse of time was less than 0.05%.)”; the “Durability of polarizer: amount of change of degree of polarization (%) 60° C., 95%, 1,000 hours” value is “A+ (The amount of change of the degree of polarization before and after the elapse of time was less than 1.0%.)”; the “Durability of polarizer: amount of change of degree of polarization (%) 80° C., Dry, 500 hours” value was “A+ (The amount of change of the degree of polarization before and after the elapse of time was less than 0.05%.)”; the “Durability of polarizer: amount of change of degree of polarization (%) 80° C., Dry, 1,000 hours” value was “A+ (The amount of change of the degree of polarization before and after the elapse of time was less than 0.1%.)”. In data set [2], the “Durability of polarizer: amount of change of orthogonal transmittance (%) 60° C., 95%, 500 hours” value is “A+ (The amount of change of the orthogonal transmittance before and after the elapse of time was less than 0.1%.)”; the “Durability of polarizer: amount of change of orthogonal transmittance (%) 60° C., 95%, 1,000 hours” value was “A+ (The amount of change of the orthogonal transmittance before and after the elapse of time was less than 0.5%.)”; the “Durability of polarizer: amount of change of orthogonal transmittance (%) 80° C., Dry 500 hours” value is “A+ (The amount of change of the orthogonal transmittance before and after the elapse of time was less than 0.05%.)”; the “Durability of polarizer: amount of change of orthogonal transmittance (%) 80° C., Dry, 1,000 hours” value is “A+ (The amount of change of the orthogonal transmittance before and after the elapse of time was less than 0.1%.)”. In data set [3], the “Durability of polarizer: amount of change of degree of polarization (%) 60° C., 95%, 500 hours” value was “A+ (The amount of change of the degree of polarization before and after the elapse of time was less than 0.05%.)”; the “Durability of polarizer: amount of change of degree of polarization (%) 60° C., 95%, 1,000 hours” value is “A+ (The amount of change of the degree of polarization before and after the elapse of time was less than 1.0%.)”; the “Durability of polarizer: amount of change of degree of polarization (%) 80° C., Dry, 500 hours” value was “A+ (The amount of change of the degree of polarization before and after the elapse of time was less than 0.05%.)”; the “Durability of polarizer: amount of change of degree of polarization (%) 80° C., Dry, 1,000 hours” value was “A+ (The amount of change of the degree of polarization before and after the elapse of time was less than 0.1%.)”. In data set [3], the “Durability of polarizer: amount of change of orthogonal transmittance (%) 60° C., 95%, 500 hours” value is “A+ (The amount of change of the orthogonal transmittance before and after the elapse of time was less than 0.1%.)”; the “Durability of polarizer: amount of change of orthogonal transmittance (%) 60° C., 95%, 1,000 hours” value is “A+ (The amount of change of the orthogonal transmittance before and after the elapse of time was less than 0.5%.)”; the “Durability of polarizer: amount of change of orthogonal transmittance (%) 80° C., Dry 500 hours” value is “A+ (The amount of change of the orthogonal transmittance before and after the elapse of time was less than 0.05%.)”; the “Durability of polarizer: amount of change of orthogonal transmittance (%) 80° C., Dry, 1,000 hours” value was “A+ (The amount of change of the orthogonal transmittance before and after the elapse of time was less than 0.1%.)”.

With `COC(=O)Oc1[nH]c(=O)n(Cc2ccc(S(=O)(=O)[O-])cc2)c(=O)c1C=O.[Na+]` [Example compound AAV], the Bleed out result in data set [1] is on record as “A (The haze was less than 0.3%.)”. For the same compound, in data set [2], the “Durability of polarizer: amount of change of degree of polarization (%) 60° C., 95%, 500 hours” value is “A+ (The amount of change of the degree of polarization before and after the elapse of time was less than 0.05%.)”; the “Durability of polarizer: amount of change of degree of polarization (%) 60° C., 95%, 1,000 hours” value is “A+ (The amount of change of the degree of polarization before and after the elapse of time was less than 1.0%.)”; the “Durability of polarizer: amount of change of degree of polarization (%) 80° C., Dry, 500 hours” value is “A+ (The amount of change of the degree of polarization before and after the elapse of time was less than 0.05%.)”; the “Durability of polarizer: amount of change of degree of polarization (%) 80° C., Dry, 1,000 hours” value is “A+ (The amount of change of the degree of polarization before and after the elapse of time was less than 0.1%.)”. Also, in data set [2], the “Durability of polarizer: amount of change of orthogonal transmittance (%) 60° C., 95%, 500 hours” value was “A+ (The amount of change of the orthogonal transmittance before and after the elapse of time was less than 0.1%.)”; the “Durability of polarizer: amount of change of orthogonal transmittance (%) 60° C., 95%, 1,000 hours” value was “A+ (The amount of change of the orthogonal transmittance before and after the elapse of time was less than 0.5%.)”; the “Durability of polarizer: amount of change of orthogonal transmittance (%) 80° C., Dry 500 hours” value is “A+ (The amount of change of the orthogonal transmittance before and after the elapse of time was less than 0.05%.)”; the “Durability of polarizer: amount of change of orthogonal transmittance (%) 80° C., Dry, 1,000 hours” value is “A+ (The amount of change of the orthogonal transmittance before and after the elapse of time was less than 0.1%.)”. For the same compound, in data set [3], the “Durability of polarizer: amount of change of degree of polarization (%) 60° C., 95%, 500 hours” value was “A+ (The amount of change of the degree of polarization before and after the elapse of time was less than 0.05%.)”; the “Durability of polarizer: amount of change of degree of polarization (%) 60° C., 95%, 1,000 hours” value is “A+ (The amount of change of the degree of polarization before and after the elapse of time was less than 1.0%.)”; the “Durability of polarizer: amount of change of degree of polarization (%) 80° C., Dry, 500 hours” value was “A+ (The amount of change of the degree of polarization before and after the elapse of time was less than 0.05%.)”; the “Durability of polarizer: amount of change of degree of polarization (%) 80° C., Dry, 1,000 hours” value was “A+ (The amount of change of the degree of polarization before and after the elapse of time was less than 0.1%.)”. Moreover, in data set [3], the “Durability of polarizer: amount of change of orthogonal transmittance (%) 60° C., 95%, 500 hours” value is “A+ (The amount of change of the orthogonal transmittance before and after the elapse of time was less than 0.1%.)”; the “Durability of polarizer: amount of change of orthogonal transmittance (%) 60° C., 95%, 1,000 hours” value is “A+ (The amount of change of the orthogonal transmittance before and after the elapse of time was less than 0.5%.)”; the “Durability of polarizer: amount of change of orthogonal transmittance (%) 80° C., Dry 500 hours” value was “A+ (The amount of change of the orthogonal transmittance before and after the elapse of time was less than 0.05%.)”; the “Durability of polarizer: amount of change of orthogonal transmittance (%) 80° C., Dry, 1,000 hours” value is “A+ (The amount of change of the orthogonal transmittance before and after the elapse of time was less than 0.1%.)”.
